These results are taken from paper PMC4022406.

Amino acid sequences for entries named in this document (tags omitted).
UniProt P02340: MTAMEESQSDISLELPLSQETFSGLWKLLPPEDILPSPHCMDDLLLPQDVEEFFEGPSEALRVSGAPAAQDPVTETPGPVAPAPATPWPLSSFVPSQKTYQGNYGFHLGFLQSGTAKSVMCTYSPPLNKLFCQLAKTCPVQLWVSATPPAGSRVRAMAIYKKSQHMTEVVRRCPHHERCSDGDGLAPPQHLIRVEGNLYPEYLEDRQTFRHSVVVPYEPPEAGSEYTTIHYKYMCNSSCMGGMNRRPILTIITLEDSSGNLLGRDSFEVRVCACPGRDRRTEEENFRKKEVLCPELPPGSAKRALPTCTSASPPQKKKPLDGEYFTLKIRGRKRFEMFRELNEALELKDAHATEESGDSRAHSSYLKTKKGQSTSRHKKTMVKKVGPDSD
UniProt P03372: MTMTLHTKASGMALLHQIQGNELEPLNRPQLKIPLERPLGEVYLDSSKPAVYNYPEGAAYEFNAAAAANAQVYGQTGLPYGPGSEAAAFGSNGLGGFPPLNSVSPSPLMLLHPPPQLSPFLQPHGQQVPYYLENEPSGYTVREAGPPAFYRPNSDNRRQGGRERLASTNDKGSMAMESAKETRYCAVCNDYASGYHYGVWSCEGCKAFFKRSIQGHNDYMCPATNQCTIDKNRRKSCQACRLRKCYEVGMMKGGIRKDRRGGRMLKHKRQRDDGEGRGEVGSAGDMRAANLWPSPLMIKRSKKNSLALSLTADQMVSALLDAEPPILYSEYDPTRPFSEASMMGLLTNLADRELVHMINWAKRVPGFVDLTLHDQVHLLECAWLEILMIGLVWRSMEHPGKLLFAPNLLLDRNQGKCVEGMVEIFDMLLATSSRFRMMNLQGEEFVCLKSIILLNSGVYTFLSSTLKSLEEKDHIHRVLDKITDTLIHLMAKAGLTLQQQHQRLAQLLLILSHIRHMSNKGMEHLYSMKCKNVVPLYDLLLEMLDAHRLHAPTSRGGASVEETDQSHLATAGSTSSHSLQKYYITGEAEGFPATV

No constants are given. Whether binding was seen depends on the method and setting. Binding seen in cells or lysates may run through a third protein. Some binding calls cover weakened binding; strength is not graded here.

The assay concerns the target GST-fused wild-type mouse p53 (mouse) (UniProt P02340). The experiment in a line: pull-down; 35S-labeled ER or TR translated in vitro, incubated with bead-bound GST-p53 fusion proteins, without or with hormone (100 nM E2 for ER, 1 μM T3 for TR); SDS-PAGE, autoradiography, phosphorimager; only the target purified.

As for “human estrogen receptor (hERα), in vitro translated (from UniProt P03372 1-595)”, the binding result was “binds”.

B1: human thyroid receptor (hTRβ1), in vitro translated (receptor, UniProt P10828 1-461)
chain: MTPNSMTENGLTAWDKPKHCPDREHDWKLVGMSEACLHRKSHSERRSTLKNEQSSPHLIQTTWTSSIFHLDHDDVNDQSVSSAQTFQTEEKKCKGYIPSYLDKDELCVVCGDKATGYHYRCITCEGCKGFFRRTIQKNLHPSYSCKYEGKCVIDKVTRNQCQECRFKKCIYVGMATDLVLDDSKRLAKRKLIEENREKRRREELQKSIGHKPEPTDEEWELIKTVTEAHVATNAQGSHWKQKRKFLPEDIGQAPIVNAPEGGKVDLEAFSHFTKIITPAITRVVDFAKKLPMFCELPCEDQIILLKGCCMEIMSLRAAVRYDPESETLTLNGEMAVTRGQLKNGGLGVVSDAIFDLGMSLSSFNLDDTEVALLQAVLLMSSDRPGLACVERIEKYQDSFLLAFEHYINYRKHHVTHFWPKLLMKVTDLRMIGACHASRFLHMKVECPTELFPPLFLEVFED
modifications: 35S-labeled
Take B1: the binding entry is “binds”.
